Laboratory results taken from paper PMC7819943, “Rice protein-binding microarrays: a tool to detect cis-acting elements near promoter regions in rice”.
Some of the results follow.

The chains behind the UniProt entries cited, without tags or fusion partners.
UniProt Q0JBA9, entry or part of it: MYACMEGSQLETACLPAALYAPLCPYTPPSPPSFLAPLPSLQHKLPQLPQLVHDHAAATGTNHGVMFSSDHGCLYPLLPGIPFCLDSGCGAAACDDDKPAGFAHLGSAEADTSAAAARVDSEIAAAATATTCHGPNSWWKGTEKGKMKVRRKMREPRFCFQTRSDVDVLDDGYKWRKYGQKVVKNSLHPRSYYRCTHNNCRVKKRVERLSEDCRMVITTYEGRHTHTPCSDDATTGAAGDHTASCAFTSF

Target: OsWRKY34 (Oryza sativa, UniProt Q0JBA9 1-250)
Assay: protein-binding microarray (RPBM); PBS, 2% BSA, 51.3 ng/ul salmon testes DNA, 50 uM zinc acetate, 200 nM TF, 25 C, 1 h; high values mean tight binding
Settings: protein: recombinant; tags: N-terminal polyhistidine and DsRed monomer fusion (pET32a); label: CyDye5-dUTP incorporated in the synthesized complementary strand; 3' TTTTT single-stranded linker to array surface; dsDNA, one strand shown
In short: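 A custom Agilent array was converted to double-stranded form by primer extension with Cy5-dUTP and blocked with 2% BSA. Protein at 200 nM in PBS with 2% BSA, salmon testes DNA and 50 µM zinc acetate was applied for 1 h at 25 °C, followed by washing. The proteins were polyhistidine–DsRed N-terminal fusions of transcription factors, expressed in E. coli BL21-CodonPlus and Ni–NTA-purified. The binding signal is per-feature fluorescence intensity (arbitrary units) from an Axon 4000B scanner.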

Sequence	binding signal
ACGTAGGAAGGTGGAAGCGGTTTCTTGGGGTTTGGATATGCGGAGTCACCTAGTGCAG	11000 fluorescence intensity (a.u.)
CTAGATCTACTCCTCTTCCTCACCTATCACACTGCCATGTCGGAGTCACCTAGTGCAG	9340 fluorescence intensity (a.u.)
TCTCATCCCAAGTAACTTTGACCGGTACTACAGGTAACATCGGAGTCACCTAGTGCAG	8660 fluorescence intensity (a.u.)
CCTAGGTTTTCGTGTCCAGCGTTCGATTGTCCGTCTTATACGGAGTCACCTAGTGCAG	11100 fluorescence intensity (a.u.)
TCTCGTCTCGTCTCCTTCTCATCCAATCTCAATCTCACCACGGAGTCACCTAGTGCAG	11500 fluorescence intensity (a.u.)
GTGGGCTGTTTCCACGTCGTCCGTTTCTGGGCCGCACGTGCGGAGTCACCTAGTGCAG	12600 fluorescence intensity (a.u.)
CTATCGCCATCGATTCCGGTCACCGCTGCTTGCAACAAGACGGAGTCACCTAGTGCAG	8530 fluorescence intensity (a.u.)
ATAGAAGCTACTCCGCATGTGAAAGACCAACCATTTTATTCGGAGTCACCTAGTGCAG	8450 fluorescence intensity (a.u.)
TGTCGTCTATATCTCTCCGCGCGCGCTTTTGGAGCTTTCCCGGAGTCACCTAGTGCAG	10800 fluorescence intensity (a.u.)
TTACTTGATTGATATTTTTCATTTATTTTACTATTATAGTCGGAGTCACCTAGTGCAG	8810 fluorescence intensity (a.u.)
GTCTCCCACATCCGCGGCGAGGGCGGTGCTCCGTTGACCGCGGAGTCACCTAGTGCAG	12200 fluorescence intensity (a.u.)
GCTGGTGGTATGAGGAATTTGTTGTCGACACAATCGTTTACGGAGTCACCTAGTGCAG	8450 fluorescence intensity (a.u.)
TTATTATATCGGATTGGCTACTCTTCTGTCGACAGATTTTCGGAGTCACCTAGTGCAG	10500 fluorescence intensity (a.u.)
GAATTTTAGGGTGGGATCTAAAGATGGCCTTAAAGGAGAACGGAGTCACCTAGTGCAG	8330 fluorescence intensity (a.u.)
GACGATTAACTCAGCTCTCATTGTTGTCAACTCGCTGACTCGGAGTCACCTAGTGCAG	11900 fluorescence intensity (a.u.)
ACATACAACCTCTGCCCACATGTCAATTGCACACAGGGTTCGGAGTCACCTAGTGCAG	8600 fluorescence intensity (a.u.)
TTGTTGTTCTCTTCCCTTGGGTTTTGTCTGTAACGTCGAGCGGAGTCACCTAGTGCAG	10200 fluorescence intensity (a.u.)
GCTTATAGCCTGCTATTGTACCTGCTCTAACCTGATTTCCCGGAGTCACCTAGTGCAG	10100 fluorescence intensity (a.u.)
GAGCTTTTTATTGTTCATAATTATTATAGGATATTTTTTTCGGAGTCACCTAGTGCAG	10000 fluorescence intensity (a.u.)
TTCCCGTTCCATTTCTTGCACAACTACTCCTCTAGCCAAACGGAGTCACCTAGTGCAG	8160 fluorescence intensity (a.u.)
TCGCTTTTACCATCCGCCCTTGCTTTCTACTGTTATATATCGGAGTCACCTAGTGCAG	10800 fluorescence intensity (a.u.)

Rewritten with each value named: part of the list above.
CTAGATCTACTCCTCTTCCTCACCTATCACACTGCCATGTCGGAGTCACCTAGTGCAG
  binding signal: 9340 fluorescence intensity (a.u.)
CCTAGGTTTTCGTGTCCAGCGTTCGATTGTCCGTCTTATACGGAGTCACCTAGTGCAG
  binding signal: 11100 fluorescence intensity (a.u.)
TTCCCGTTCCATTTCTTGCACAACTACTCCTCTAGCCAAACGGAGTCACCTAGTGCAG
  binding signal: 8160 fluorescence intensity (a.u.)

(next part)

Sequence	binding signal
AATGACAACCCTAAGCTAATCCTAGGCACAATTTTTTACCCGGAGTCACCTAGTGCAG	9570 fluorescence intensity (a.u.)
ATTCCTTCGTCTGTTGCTGCTGACTGCGCGGGGCGGAAGACGGAGTCACCTAGTGCAG	9910 fluorescence intensity (a.u.)
GTGCTGTAAACCTTGCTGCCCACTTGTCATCTCGTACTACCGGAGTCACCTAGTGCAG	13100 fluorescence intensity (a.u.)
TTGGGTTGGACCAAGTTAGTGTTTGGTACATTGGCATTTTCGGAGTCACCTAGTGCAG	8620 fluorescence intensity (a.u.)
AGCTAGTTTCCGACCGTATTCGATCCGTTTTCATCCTAGTCGGAGTCACCTAGTGCAG	8060 fluorescence intensity (a.u.)
GAAAGAAACAAGTGTGGGGTCATGCCTTGACCACATGCATCGGAGTCACCTAGTGCAG	9030 fluorescence intensity (a.u.)
GATGGGAAGTGCAATATTTGTTGGGGATCGCGAGGGAGAGCGGAGTCACCTAGTGCAG	9180 fluorescence intensity (a.u.)
ATTTAGGGAAATTATAACCATGCCACTCTGTCGTGTTTTCCGGAGTCACCTAGTGCAG	9180 fluorescence intensity (a.u.)
TTGTGGAGGAGGTGGGCGGCTATTCGGCGCCGGTTCTTGCCGGAGTCACCTAGTGCAG	8650 fluorescence intensity (a.u.)
ACTAATAACATCCTCACAAGTTGTTTGCTTGTTTTTCAACCGGAGTCACCTAGTGCAG	8590 fluorescence intensity (a.u.)
TTTGTGCGTGTTACGAGTGACTTGCGTTTATATCCTGCTTCGGAGTCACCTAGTGCAG	8220 fluorescence intensity (a.u.)
TGTTTAATACCACGGTTGCTTGCTGTTGTAGCTCTATTCCCGGAGTCACCTAGTGCAG	9180 fluorescence intensity (a.u.)
ATACTTACATTTCTCAATGTCCATGTAGCCAATCATGTATCGGAGTCACCTAGTGCAG	9670 fluorescence intensity (a.u.)
CTCTGTTCATCCATTGGTCGGCCAGCGCGGCGCGCACACGCGGAGTCACCTAGTGCAG	8930 fluorescence intensity (a.u.)
TCTCTTCACACCATCACATGTAGTGCGTGTACTCCTAGAGCGGAGTCACCTAGTGCAG	9520 fluorescence intensity (a.u.)
TAATACTCCTACTATGGACTTGTTCTCCGTGTTGCTTATTCGGAGTCACCTAGTGCAG	10200 fluorescence intensity (a.u.)
CCGATGATTCTACTGGATCCGCCGTTTCTCCGCGTTCGATCGGAGTCACCTAGTGCAG	8300 fluorescence intensity (a.u.)
CTCCTCGGTCTTTGTGCGTGCTTGTAGTGTCTGTCCACTCCGGAGTCACCTAGTGCAG	11100 fluorescence intensity (a.u.)
ACTAATAGTGTTTCTTCATGACCTACCACTTCTTTATACGCGGAGTCACCTAGTGCAG	11100 fluorescence intensity (a.u.)
CATAACATACATTGGTCGTCCTGTAAGGCATGTTTCTTTTCGGAGTCACCTAGTGCAG	8620 fluorescence intensity (a.u.)
TCCTCTGTCATTGCCTCCTCTGTATGTGTGTGTTTCATCGCGGAGTCACCTAGTGCAG	11800 fluorescence intensity (a.u.)
